# Laboratory results: the supplement of paper PMC3334620
# Whole data set: some 33,000 sequences, median “E-score (-0.5 to 0.5)” near -0.0034, cut for the highest 2% near 0.25. The list shows a part of the results.
# Biological target: T1, Yap3 (UniProt P38749)
# T1 sequence: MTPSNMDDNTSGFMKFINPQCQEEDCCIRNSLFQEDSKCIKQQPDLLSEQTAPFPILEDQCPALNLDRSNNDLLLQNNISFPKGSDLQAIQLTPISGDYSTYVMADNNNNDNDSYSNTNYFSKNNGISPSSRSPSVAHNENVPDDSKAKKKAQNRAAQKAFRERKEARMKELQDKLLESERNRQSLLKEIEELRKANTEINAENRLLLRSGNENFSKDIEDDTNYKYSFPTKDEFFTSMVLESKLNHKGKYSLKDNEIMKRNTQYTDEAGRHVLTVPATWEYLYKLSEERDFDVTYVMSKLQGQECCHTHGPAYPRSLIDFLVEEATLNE
# Assay: PBM E-score (8-mer binding enrichment) (E-score (-0.5 to 0.5)); higher = stronger / more preferred TF binding
# Settings: protein concentration: 100 nM; construct: GST-full length
# Protocol: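 Universal 'all 10-mer' protein binding microarrays (Agilent AMADID 015681) probed with GST-tagged S. cerevisiae TFs (full-length or DBD) made by in vitro transcription/translation (PURExpress), about 100-200 nM. Bound TF was detected with fluorescent anti-GST. Each ungapped 8-mer (which stands for itself and its reverse complement) is scored by the PBM enrichment score (E-score), a modified Wilcoxon-Mann-Whitney statistic from -0.5 to +0.5, computed with the Universal PBM Analysis Suite. Scale: above 0.35 generally sequence-specific binding.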
row,Sequence,PBM E-score
1,CACGTAAG,0.0981
2,AAGCCTGC,-0.112
3,CGAGTCCC,-0.0887
4,AAACCCAC,0.0806
5,ACATTGTC,0.261
6,ATAGCTGG,-0.153
7,AGGGGCGG,-0.0967
8,ACCTAGCG,-0.0647
9,CAATAGGG,-0.00825
10,CGTATGAC,-0.0555
11,ATAATCAG,0.126
12,CATGGGTA,-0.0959
13,GGCTCGAA,-0.113
14,TCTACCCA,0.0609
15,GATGAAGC,-0.0629
16,GAGGACCC,-0.298
17,GTCTGGTA,0.0119
18,AGATTAAC,0.104
19,ATACCAGG,-0.0411
20,CCACGGGC,-0.149
21,ACCGCAGC,-0.18
22,ACAATTGA,0.219
23,ACGCAGAA,0.131
24,GTTTAAGA,-0.0881
25,CCCGCTCG,-0.262

row,Sequence,PBM E-score
1,AGTTTGAA,0.141
2,CTCTCAGC,-0.122
3,ATATTGTA,0.192
4,CCTTACCG,-0.124
5,AGCTCTAA,0.0114
6,CTCAAGAG,-0.328
7,CACTAATA,0.225
8,AGACACCT,-0.0593
9,AGCATGCA,0.00046
10,ATAGTTAG,0.159
11,TAGGATGA,0.196
12,GTATTGTA,0.174
13,ATGTAGAC,-0.124
14,AAGCCAAG,-0.0751
15,CATCGATG,0.00555
16,ATAGTACG,0.176
17,CAATGATC,-0.0423
18,ATTGGACA,0.188
19,CACACGGA,-0.0988
20,GGGCTACC,-0.291
21,CTGCGACA,0.109
22,CTAACACA,0.146
23,CCCGAGCC,-0.12
24,GGAGCGCC,-0.292
25,CCTCCGAC,-0.295

# Reformatted as tab-separated lines: part of the list above.
row	Sequence	PBM E-score
7	AGGGGCGG	-0.0967
12	CATGGGTA	-0.0959
21	ACCGCAGC	-0.18
22	ACAATTGA	0.219

# (next part)

row,Sequence,PBM E-score
1,CCACTACC,-0.0927
2,CTATTATA,0.145
3,ATGTTAGA,-0.0124
4,CACTAGGA,-0.21
5,TATTGGCA,0.17
6,AAGCACTA,0.0641
7,TCGCCCCA,-0.0688
8,AACTACGA,0.0343
9,GCTCCTTA,0.0472
10,AGCTGCAG,0.0196
11,CCTAAAGG,-0.296
12,GTTTTAGA,0.0499
13,CCAGGATC,-0.0532
14,ATCACTCG,0.0758
15,AGACTGCA,-0.173
16,AGCAGGTC,-0.113
17,AACAGGAA,0.192
18,CCAGTCCA,-0.301
19,CCCAAATC,-0.181
20,CATCTGTC,-0.0896
21,CCGATTAA,0.0516
22,GCCGTCCC,-0.221
23,GCGCCAAA,0.0199
24,GTCGCACA,-0.0581
25,GCCTCCGC,-0.251

row,Sequence,PBM E-score
1,CCTCGGAC,-0.0674
2,ACTCGACG,0.0995
3,ACATCGTC,0.0182
4,CATTGTCC,0.152
5,CGTAACCC,-0.0525
6,AATACTTC,0.0594
7,CGATGAAA,0.151
8,CAAATCAC,0.0668
9,AGATGCCT,-0.16
10,AGTAAACG,0.0328
11,CATATGGG,0.074
12,AATTTCGA,-0.00117
13,ATAGGAGC,-0.0665
14,GAAGAGAA,0.0793
15,AAGACGGA,-0.0853
16,CTCGACCC,-0.173
17,TATCTGAA,0.00285
18,ATAGGCTA,-0.0511
19,CCTAATTC,0.036
20,TGCAGGAA,0.123
21,AAAAACCG,0.0201
22,GTAGATTA,0.245
23,CTAGACAC,-0.116
24,CAACTTTC,0.132
25,GAGAGGTA,-0.0637

row,Sequence,PBM E-score
1,ACCTCTAC,0.121
2,GGACCCCA,-0.129
3,CGGTGCAG,-0.157
4,CTCTTTGC,0.00066
5,AACAGTTC,0.0834
6,GTTAACAA,0.205
7,TGCGCCAA,-0.024
8,CGGGGTCA,-0.139
9,CCTGGGAC,-0.282
10,ACTGGGTC,-0.257
11,TGGCGCCA,-0.116
12,ATGGTATA,0.262
13,GGAAAGAA,0.0609
14,AACAAGTA,0.0882
15,CCCTCCCA,-0.00238
16,AACCTCTG,-0.137
17,CGTCTCAA,-0.0422
18,AAAGAAAA,0.18
19,ATTCTAAC,0.109
20,GTAATAGA,0.223
21,GCTTACGA,0.219
22,CAATAGCA,-0.128
23,ACTACGCC,-0.303
24,ATAACATC,0.165
25,AGTATACG,0.142

row,Sequence,PBM E-score
1,AATTTACA,0.155
2,CCCCTTAC,-0.0967
3,GCTATACA,0.033
4,ACCATAGT,0.065
5,GTGTCTTA,-0.0355
6,ATGGGAAA,0.0297
7,CAAAAGTC,0.0469
8,ATAGCTCC,-0.0147
9,CACTCCAA,-0.141
10,CGCCATCC,-0.247
11,GTAAACAA,0.248
12,CTTCCGGA,-0.154
13,GTTCAATA,0.0871
14,CTTTCTTA,0.104
15,AAGATCCA,-0.135
16,TATCCCCA,0.127
17,GAATAGTC,0.0146
18,GACTCGGC,-0.274
19,AGTACGCG,0.0906
20,GCGTAATA,0.305
21,CATGAGGA,0.135
22,CCCCACGA,-0.103
23,GACATTAA,0.136
24,TCCACGAA,0.108
25,ACAATGAT,0.2

row,Sequence,PBM E-score
1,GTGAGGAA,-0.176
2,CGTGAAAC,0.0367
3,ACGCAAAT,-0.00525
4,TACAGCTA,-0.115
5,CGACTTGC,-0.0489
6,AAACGAGT,0.217
7,AGTTTCAA,0.0153
8,CTCAATGC,-0.105
9,ATGTTGAA,0.227
10,AACGATGC,-0.0793
11,CCGTGCCC,-0.265
12,AGCTCCTC,-0.229
13,ATGATTAC,0.13
14,AATAACCA,0.0989
15,AATACAAC,0.147
16,GAGGAATC,-0.116
17,CTTACCAC,-0.0571
18,TAGATATA,0.232
19,ACATTCAG,-0.113
20,AAATAAAA,0.224
21,AGCCAGTA,0.00092
22,AGACAGCG,-0.154

# A different layout for part of the listing above.
row	Sequence	PBM E-score
22	CCCCACGA	-0.103
23	GACATTAA	0.136
24	TCCACGAA	0.108
25	ACAATGAT	0.2
1	GTGAGGAA	-0.176
